PubChem BioAssay AID652259 – Drosophila RNAi Screening Center, 2013
Assay: 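Identify new Wingless signalling regulators in fly cells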 (primary screen). Cell system: Drosophila clone 8 imaginal disc epithelial cells. Reagent: long dsRNA against Drosophila genes. Challenge: pathway stimulated by co-transfected Wingless expression plasmid. Measurement: 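Dual luciferase reads per well after Wingless plasmid stimulation: reporter firefly light and Renilla control light; activity is firefly divided by Renilla, a ratio not deposited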. Direction: firefly reporter light: higher = more Wg reporter light, before normalisation; Renilla control light: higher = more transfected or surviving cells. Active means: 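Strong candidates differ from their plate mean by at least two out of four per-plate statistical tests; weak candidates meet just one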. Calls: active = candidate regulator (raises or lowers reporter); inactive = not a candidate.
The deposit covers about 22,000 reagents; below is a random part of those with a known target gene and a result. In the full data, 233 (1.1%) were called active. 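Light values are raw, unnormalised plate reads; the ratio scores behind the reporter calls were not deposited.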 Names joined by + are all predicted targets of the reagent. Not given: the amount of reagent, the time to read-out, the dose of the treatment.

| gene | amplicon | reporter change call, replicate 1 | firefly reporter light, replicate 1 | firefly reporter light, replicate 2 | Renilla control light, replicate 1 | Renilla control light, replicate 2 | Call |
| --- | --- | --- | --- | --- | --- | --- | --- |
| Unc-115a | DRSC12749 | – | 3732 | – | 1728 | – | inactive |
| Cpsf6 | DRSC10781 | – | 5241 | – | 1533 | – | inactive |
| CG6873 | DRSC20014 | – | 21769 | – | 10840 | – | inactive |
| CG43110 | DRSC05661 | – | 18780 | – | 12005 | – | inactive |
| BORCS6 | DRSC08514 | – | 6721 | – | 4917 | – | inactive |
| hay | DRSC11354 | – | 9153 | – | 1648 | – | inactive |
| CG31688 | DRSC02117 | – | 2843 | 5032 | 395 | 1197 | inactive |
| CG31688 | DRSC02682 | – | 2650 | 5184 | 644 | 2301 | inactive |
| CG4293 | DRSC18557 | – | 2316 | 5989 | 856 | 1549 | inactive |
| Sf3b5 | DRSC14460 | – | 17591 | – | 3408 | – | inactive |
| CG33286 | DRSC11691 | – | 20240 | – | 6802 | – | inactive |
| CG9997 | DRSC16591 | – | 9608 | – | 2640 | – | inactive |
| Lime | DRSC06752 | – | 5936 | 16075 | 1728 | 5271 | inactive |
| CG17896 | DRSC18502 | – | 1862 | 5669 | 950 | 2432 | inactive |
| CG33136 | DRSC05744 | Wg reporter activity lowered | 4897 | – | 9809 | – | active |
| CG15537 | DRSC15073 | – | 8595 | – | 3072 | – | inactive |
| CG43254 | DRSC12638 | – | 4592 | – | 1681 | – | inactive |
| aralar1 | DRSC13987 | – | 2989 | – | 1025 | – | inactive |
| aralar1 | DRSC16901 | – | 1488 | 5076 | 713 | 1162 | inactive |
| nmo | DRSC08902 | – | 2922 | – | 438 | – | inactive |
| nmo | DRSC11377 | – | 3290 | – | 1186 | – | inactive |
| Vm26Ac | DRSC02329 | – | 2804 | 7284 | 1281 | 2905 | inactive |
| CG31465 | DRSC16090 | – | 2521 | 8001 | 954 | 2868 | inactive |
| Vha36-2 | DRSC06294 | – | 6906 | – | 3005 | – | inactive |
| CG15930 | DRSC18107 | – | 18640 | – | 11498 | – | inactive |
| bru1 | DRSC01234 | – | 20656 | – | 4736 | – | inactive |
| bru1 | DRSC01236 | – | 16473 | – | 5095 | – | inactive |
| bru1 | DRSC01237 | – | 17900 | – | 8576 | – | inactive |
| bru1 | DRSC01238 | – | 23437 | – | 9717 | – | inactive |
| bru1 | DRSC03485 | – | 10040 | – | 2160 | – | inactive |
| Or10a | DRSC20264 | – | 19685 | – | 11559 | – | inactive |
| Drep3 | DRSC06312 | – | 11674 | – | 3884 | – | inactive |
| Drep3 | DRSC07529 | – | 4614 | – | 1205 | – | inactive |
| Drep3 | DRSC22344 | – | 5.93e5 | 5.72e5 | 2.22e5 | 2.23e5 | inactive |
| COX8 | DRSC11814 | – | 11296 | – | 2936 | – | inactive |
| CG34203 | DRSC03855 | – | 17659 | – | 8656 | – | inactive |
| Hil | DRSC05989 | – | 19869 | – | 5328 | – | inactive |
| Hil | DRSC06395 | – | 4721 | – | 2924 | – | inactive |
| mRpL11 | DRSC15482 | – | 12573 | – | 2240 | – | inactive |
| Chi | DRSC04602 | – | 7434 | – | 3000 | – | inactive |
| NP15.6 | DRSC16756 | – | 11653 | – | 2769 | – | inactive |
| CG2111 | DRSC18205 | – | 13300 | – | 7541 | – | inactive |
| CG34299 | DRSC13974 | – | 5809 | – | 2442 | – | inactive |
| CG33773 | DRSC14032 | – | 4996 | – | 2368 | – | inactive |
| EndoA | DRSC14775 | – | 2986 | 2653 | 1286 | 656 | inactive |
| CG18581 | DRSC10324 | – | 2536 | – | 1491 | – | inactive |
| Rh2 | DRSC16821 | – | 13701 | – | 2540 | – | inactive |
| Nrg | DRSC17573 | – | 3936 | – | 1125 | – | inactive |
| Nrg | DRSC18688 | – | 1890 | 6823 | 888 | 2410 | inactive |
| RpLP2 | DRSC07539 | – | 5012 | – | 1078 | – | inactive |
| Or82a | DRSC11996 | – | 3782 | – | 1497 | – | inactive |
| Cpr30B | DRSC02728 | – | 3680 | 10220 | 1120 | 4263 | inactive |
| CG3198 | DRSC18292 | – | 11399 | – | 7772 | – | inactive |
| CG42505 + CG42504 + CG31358 | DRSC15235 | – | 8217 | – | 2616 | – | inactive |
| CG42505 + CG42504 + CG31358 | DRSC15308 | – | 3505 | – | 1603 | – | inactive |
| CG42505 + CG42504 + CG31358 | DRSC15309 | – | 25533 | – | 6545 | – | inactive |
| CG42376 + cin | DRSC18752 | – | 2477 | 6485 | 845 | 1767 | inactive |
| Alr | DRSC19469 | – | 17899 | – | 11837 | – | inactive |
| garz | DRSC07193 | – | 5227 | – | 2055 | – | inactive |
| CG8858 | DRSC07290 | – | 5703 | – | 2444 | – | inactive |
| yip7 | DRSC11410 | – | 1701 | 7860 | 723 | 2400 | inactive |
| CG3808 | DRSC10377 | – | 9421 | – | 1837 | – | inactive |
| Cyp12a5 | DRSC16621 | – | 13270 | – | 3512 | – | inactive |
| CG4476 | DRSC10424 | – | 1569 | 7219 | 1384 | 3286 | inactive |
| CG9926 | DRSC16582 | – | 5104 | – | 2392 | – | inactive |
| Cpr62Bb | DRSC08404 | – | 5755 | – | 2289 | – | inactive |
| sol | DRSC20587 | – | 12488 | – | 7748 | – | inactive |
| dgt1 | DRSC15301 | – | 3348 | 5994 | 539 | 929 | inactive |
| CG14502 | DRSC06473 | – | 15160 | – | 4069 | – | inactive |
| bard | DRSC14796 | – | 16021 | – | 3269 | – | inactive |
| CG31016 | DRSC21359 | – | 6.10e5 | 6.46e5 | 2.71e5 | 2.76e5 | inactive |
| YL-1 | DRSC02765 | – | 2823 | 11178 | 874 | 3084 | inactive |
| spi | DRSC03618 | – | 2451 | 7827 | 844 | 2612 | inactive |
